Experimental findings from patent publication US12239729B2 (Soricimed Biopharma Inc., priority 2012, dated 2025) are described below.

The nature of the data set: peptide made by a vendor. The conditions noted are these: whole synthesis.

Plain letter strings leave the end groups untold.

As to EGKLSSNDTEGGLCKEFLHPSKVDLPR, the “purity (crude or final not stated)” value is “˜77.7%”.
